PubChem BioAssay AID1159578 – Peter MacCallum Cancer Centre | 2015

Screen: 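Genome-wide hunt for genes controlling movement of lymphatic endothelial cells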 (primary screen)
System: human lymphatic endothelial cells
Knock-down reagent: siRNA pool against human genes, 40 nM
Time to read-out: 48 h after transfection
Measurement: 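Cells stained with dye and imaged after a scratch; covered wound area and nuclei counted, duplicates averaged, migration set against mock wells and turned into a robust z-score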
Reading the numbers: migration robust z-score: higher = faster migration into the scratch; migration relative to mock: higher = more scratch area covered than mock; nuclei per well: higher = more cells in the well
Hit rule: 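Migration changed when robust z exceeds 2 or falls below -2 and mean nuclei number is at least 3300; otherwise not called changed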
Meaning of the calls: active = migration changed; inactive = no migration change, or too few cells
Shown is one part, drawn at random, of about 18,000 reagents tested. About 1,030 of them (5.7%) were called active. 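Inactive calls also include pools with fewer than 3300 nuclei, whose migration was not assessed.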 The raw values are shown without normalisation.

gene | migration robust z-score | migration class with cell-count check | migration relative to mock | nuclei per well, duplicate mean | activity call
FGF23 | -0.26 | migration z between -2 and 2; enough cells | 0.76 | 4994 | inactive
OR9K2 | 0.38 | migration z between -2 and 2; enough cells | 0.99 | 6512 | inactive
ACOX1 | 2.02 | migration z above 2; enough cells | 1.19 | 5589 | active
LACC1 | -0.32 | migration z between -2 and 2; enough cells | 0.8 | 5817 | inactive
NFRKB | 0.49 | migration z between -2 and 2; enough cells | 0.9 | 5317 | inactive
ISCA1P1 | -0.15 | migration z between -2 and 2; enough cells | 0.85 | 6917 | inactive
MAP3K7 | -0.44 | migration z between -2 and 2; enough cells | 0.72 | 3920 | inactive
FCER1A | 1.06 | migration z between -2 and 2; enough cells | 1.01 | 5442 | inactive
TMEM168 | 2.25 | migration z above 2; enough cells | 1.47 | 5734 | active
ADISSP | 0.63 | migration z between -2 and 2; enough cells | 1.04 | 5547 | inactive
RIC8A | 1.86 | migration z between -2 and 2; enough cells | 1.37 | 5830 | inactive
CYP4F2 | -2.69 | migration z below -2; enough cells | 0.29 | 4176 | active
NACA | 0.16 | migration z between -2 and 2; enough cells | 0.92 | 5491 | inactive
CAMTA1 | 0.2 | migration z between -2 and 2; enough cells | 0.84 | 4699 | inactive
SLC25A28 | 0.14 | migration z between -2 and 2; enough cells | 0.92 | 5310 | inactive
DMP1 | 0.7 | migration z between -2 and 2; enough cells | 1.06 | 6269 | inactive
OXLD1 | -0.86 | migration z between -2 and 2; enough cells | 0.66 | 4832 | inactive
IGFBP7 | -0.96 | migration z between -2 and 2; enough cells | 0.62 | 5369 | inactive
STPG3 | 2.88 | migration z above 2; enough cells | 1.64 | 6480 | active
RETNLB | 0.48 | migration z between -2 and 2; enough cells | 1.01 | 5294 | inactive
OR4F6 | -1.22 | migration z between -2 and 2; enough cells | 0.56 | 3336 | inactive
CYTIP | -1.78 | migration z between -2 and 2; enough cells | 0.42 | 5442 | inactive
RNLS | 1.04 | migration z between -2 and 2; enough cells | 1.16 | 6268 | inactive
UTP23 | 0.2 | migration z between -2 and 2; enough cells | 0.94 | 7804 | inactive
ADGRG2 | 1.66 | migration z between -2 and 2; enough cells | 1.12 | 5808 | inactive
KDM3B | -1.5 | migration z between -2 and 2; enough cells | 0.5 | 5048 | inactive
KCNK12 | -0.9 | migration z between -2 and 2; enough cells | 0.63 | 4927 | inactive
POLR2G | -0.75 | migration z between -2 and 2; enough cells | 0.66 | 4924 | inactive
CTSO | 1.06 | migration z between -2 and 2; enough cells | 1.01 | 5400 | inactive
KRTAP13-2 | -0.22 | migration z between -2 and 2; enough cells | 0.82 | 3633 | inactive
GDPD1 | -0.16 | migration z between -2 and 2; enough cells | 0.77 | 5425 | inactive
ECI1 | -1.45 | migration z between -2 and 2; enough cells | 0.52 | 4928 | inactive
DBP | -2.51 | migration z below -2; enough cells | 0.32 | 4554 | active
USH2A | -0.48 | migration z between -2 and 2; enough cells | 0.76 | 6366 | inactive
USHBP1 | -0.8 | migration z between -2 and 2; enough cells | 0.68 | 5404 | inactive
MCM9 | 0.22 | migration z between -2 and 2; enough cells | 0.94 | 5590 | inactive
MNAT1 | -0.42 | migration z between -2 and 2; enough cells | 0.72 | 4687 | inactive
GRAMD4 | 0.57 | migration z between -2 and 2; enough cells | 1.03 | 5710 | inactive
CHD6 | 0.26 | migration z between -2 and 2; enough cells | 0.86 | 6102 | inactive

Limited to “migration relative to mock” (6 entries from above):
LACC1 = 0.8
NFRKB = 0.9
ISCA1P1 = 0.85
MAP3K7 = 0.72
FCER1A = 1.01
TMEM168 = 1.47
